The supplement of paper PMC4604168 (melanoma cell lines)
The list shows a part of the results. Single values are uncertain, as repeats are few or missing.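 The apoptosis fraction was the count of cleaved-PARP antibody-stained nuclei relative to all DNA-stained nuclei, imaged in 1,536-well plates. Screening doses were set so most cells survived, and baseline and induced cleaved-PARP levels vary greatly across cell lines.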

Tests used:
Test in all cases: cleaved PARP positive nuclei fraction relative to DMSO control; melanoma cells; higher = more apoptosis
Conditions in all cases: library dose: low library concentration; 72 h
501Mel = system: 501Mel
A101D = system: A101D
A2058 = system: A2058
C32 = system: C32
CBRC008 = system: CBRC008 (line from a melanoma biopsy)
CBRC014 = system: CBRC014 (line from a melanoma biopsy)
CBRC016 = system: CBRC016 (line from a melanoma biopsy)
CBRC017 = system: CBRC017 (line from a melanoma biopsy)
COLO792 = system: COLO792
COLO800 = system: COLO800
COLO829 = system: COLO829
G361 = system: G361
IPC-298 = system: IPC-298
IST-MEL1 = system: IST-MEL1
LB2518-MEL = system: LB2518-MEL
LOXIMVI = system: LOXIMVI

SMILES | cleaved PARP positive nuclei fraction (501Mel) [%] | cleaved PARP positive nuclei fraction (A101D) [%] | cleaved PARP positive nuclei fraction (A2058) [%] | cleaved PARP positive nuclei fraction (C32) [%] | cleaved PARP positive nuclei fraction (CBRC008) [%] | cleaved PARP positive nuclei fraction (CBRC014) [%] | cleaved PARP positive nuclei fraction (CBRC016) [%] | cleaved PARP positive nuclei fraction (CBRC017) [%] | cleaved PARP positive nuclei fraction (COLO792) [%] | cleaved PARP positive nuclei fraction (COLO800) [%] | cleaved PARP positive nuclei fraction (COLO829) [%] | cleaved PARP positive nuclei fraction (G361) [%] | cleaved PARP positive nuclei fraction (IPC-298) [%] | cleaved PARP positive nuclei fraction (IST-MEL1) [%] | cleaved PARP positive nuclei fraction (LB2518-MEL) [%] | cleaved PARP positive nuclei fraction (LOXIMVI) [%]
CO[C@H]1C[C@@H]2CC[C@@H](C)[C@@](O)(O2)C(=O)C(=O)N2CCCC[C@H]2C(=O)O[C@H]([C@H](C)C[C@@H]2CC[C@@H](OCCO)[C@H](OC)C2)CC(=O)[C@H](C)/C=C(\C)[C@@H](O)[C@@H](OC)C(=O)[C@H](C)C[C@H](C)/C=C/C=C/C=C/1C [everolimus] + Oc1nc(-c2ccc(C(F)(F)F)cc2)nc2c1CSCC2 [XAV939] (first compound 0.02 µM, partner dose 2 µM) | 114 | 34.3 | 117 | 637 | 183 | 88.8 | 86.1 | 84 | 292 | 102 | 114 | 241 | 126 | 174 | 119 | 161
O=C(O)c1ccc2c(c1)nc(Nc1cccc(Cl)c1)c1ccncc12 + Oc1cc(-c2nc(-c3ccccc3)[nH]c2-c2ccncc2)ccc1Cl [L779450] (first compound 0.4 µM, partner dose 0.2 µM) | 86.9 | 31.5 | 102 | 33.8 | 129 | 153 | 142 | 377 | 192 | 112 | 72.9 | 177 | 113 | 92.2 | 185 | 134
CNC(=O)c1cc(Oc2ccc(NC(=O)Nc3ccc(Cl)c(C(F)(F)F)c3)cc2)ccn1 [sorafenib] + COc1ccc2c(c1)CCC1C2CCC2(C)C(NCCCCCCN3C(=O)C=CC3=O)CCC12 [U73122] (first compound 0.4 µM, partner dose 0.4 µM) | 67.8 | 7140 | 93.5 | 89.9 | 30.2 | 117 | 119 | 132 | 137 | 26.8 | 89.2 | 64.3 | 47.3 | 36.3 | 144 | 49.4
CC(C)C[C@H](NC(=O)[C@H](Cc1ccccc1)NC(=O)c1cnccn1)B(O)O [Bortezomib] + COc1ccc(-c2ccc3c(N4CCOCC4)nc(N4C[C@@H](C)O[C@@H](C)C4)nc3n2)cc1CO [KU0063794] (first compound 0.001 µM, partner dose 0.02 µM) | 509 | 94.7 | 154 | 58.2 | 670 | 215 | 454 | 372 | 42.1 | 49.9 | 376 | 2360 | 41.1 | 74.9 | 601 | 167
CS(=O)(=O)CCNCc1ccc(-c2ccc3ncnc(Nc4ccc(OCc5cccc(F)c5)c(Cl)c4)c3c2)o1 [lapatinib] + Oc1nc(-c2ccc(C(F)(F)F)cc2)nc2c1CSCC2 [XAV939] (first compound 0.8 µM, partner dose 2 µM) | 54.5 | 27.4 | 151 | 58.3 | 143 | 95.5 | 81.9 | 88.8 | 125 | 151 | 42 | 118 | 48.1 | 85.8 | 60.9 | 70
CO[C@H]1C[C@@H]2CC[C@@H](C)[C@@](O)(O2)C(=O)C(=O)N2CCCC[C@H]2C(=O)O[C@H]([C@H](C)C[C@@H]2CC[C@@H](OCCO)[C@H](OC)C2)CC(=O)[C@H](C)/C=C(\C)[C@@H](O)[C@@H](OC)C(=O)[C@H](C)C[C@H](C)/C=C/C=C/C=C/1C [everolimus] + Cc1cc([N+](=O)[O-])ccc1NS(=O)(=O)c1cc(Cl)ccc1Cl [FH535] (first compound 0.02 µM, partner dose 1 µM) | 107 | 57.9 | 175 | 99.3 | 599 | 224 | 269 | 745 | 183 | 85.8 | 237 | 152 | 551 | 146 | 150 | 202
Nc1ncn([C@H]2C[C@H](O)[C@@H](CO)O2)c(=O)n1 [decitabine] + COc1cc(N2CCC(N3CCN(C)CC3)CC2)ccc1Nc1ncc(Cl)c(Nc2ccccc2S(=O)(=O)C(C)C)n1 [NVP-TAE684] (first compound 0.1 µM, partner dose 0.08 µM) | 70.7 | 23 | 90.6 | 136 | 437 | 54.2 | 90.7 | 100 | 211 | 100 | 50 | 101 | 176 | 112 | 128 | 138
CCCS(=O)(=O)Nc1ccc(F)c(C(=O)c2c[nH]c3ncc(Cl)cc23)c1F + O=S(=O)(c1ccccc1)N(CC(F)(F)F)c1ccc(C(O)(C(F)(F)F)C(F)(F)F)cc1 [T0901317] (first compound 0.08 µM, partner dose 1.4 µM) | 45.8 | 25.8 | 38.4 | 48 | 182 | 153 | 84.8 | 103 | 62.2 | 142 | 82.9 | 86.5 | 50.2 | 98.6 | 61.5 | 54.2
CNC(=O)c1cc(Oc2ccc(NC(=O)Nc3ccc(Cl)c(C(F)(F)F)c3)cc2)ccn1 [sorafenib] + c1cc(-c2cnn3cc(-c4ccc(OCCN5CCCCC5)cc4)cnc23)ccn1 [Dorsomorphin] (first compound 0.4 µM, partner dose 0.4 µM) | 88.6 | 18.8 | 78.2 | 45.5 | 37 | 104 | 39.2 | 157 | 69.7 | 31.6 | 63.8 | 48 | 46.9 | 236 | 68.8 | 266
CC(C)C[C@H](NC(=O)[C@H](Cc1ccccc1)NC(=O)c1cnccn1)B(O)O [Bortezomib] + O=C1NC(=O)/C(=C/c2ccc(-c3ccc(F)cc3O)o2)S1 [AS252424] (first compound 0.001 µM, partner dose 1 µM) | 93.4 | 106 | 75 | 97.5 | 352 | 178 | 578 | 213 | 85.5 | 143 | 392 | 1950 | 66.8 | 124 | 232 | 77.9
CC(C)C[C@H](NC(=O)[C@H](Cc1ccccc1)NC(=O)c1cnccn1)B(O)O [Bortezomib] + CC(C)CCN1c2nc(Nc3cc(F)c(O)c(F)c3)ncc2N(C)C(=O)C1C [BID1870] (first compound 0.001 µM, partner dose 0.2 µM) | 386 | 98.4 | 54.6 | 82.8 | 2090 | 278 | 221 | 392 | 114 | 54 | 137 | 1490 | 88.4 | 150 | 173 | 58.1
O=C(O)c1ccc2c(c1)nc(Nc1cccc(Cl)c1)c1ccncc12 + COc1cc2ncnc(Nc3ccc(Oc4ccccc4)cc3)c2cc1OC [SrcI1] (first compound 0.4 µM, partner dose 2 µM) | 175 | 439 | 40.1 | 153 | 87.7 | 117 | 30.4 | 319 | 51.9 | 18.5 | 139 | 124 | 35 | 109 | 59.4 | 150
CCCS(=O)(=O)Nc1ccc(F)c(C(=O)c2c[nH]c3ncc(Cl)cc23)c1F + O=C(Nc1ccccc1)c1cc([N+](=O)[O-])ccc1Cl [GW9662] (first compound 0.08 µM, partner dose 2 µM) | 181 | 23.1 | 91.2 | 90.1 | 261 | 106 | 36.5 | 124 | 111 | 19.4 | 95.5 | 156 | 197 | 163 | 64.9 | 28.3
CNC(=O)c1cc(Oc2ccc(NC(=O)Nc3ccc(Cl)c(C(F)(F)F)c3)cc2)ccn1 [sorafenib] + COC(=O)c1sccc1S(=O)(=O)Nc1ccc(Nc2ccccc2)cc1OC [GSK0660] (first compound 0.4 µM, partner dose 1 µM) | 166 | 40.2 | 74.8 | 40.5 | 112 | 120 | 92.8 | 123 | 74.7 | 259 | 191 | 134 | 195 | 23.2 | 128 | 73.9
CO[C@H]1C[C@@H]2CC[C@@H](C)[C@@](O)(O2)C(=O)C(=O)N2CCCC[C@H]2C(=O)O[C@H]([C@H](C)C[C@@H]2CC[C@@H](OCCO)[C@H](OC)C2)CC(=O)[C@H](C)/C=C(\C)[C@@H](O)[C@@H](OC)C(=O)[C@H](C)C[C@H](C)/C=C/C=C/C=C/1C [everolimus] + O=C(Nc1ccccc1)c1cc([N+](=O)[O-])ccc1Cl [GW9662] (first compound 0.02 µM, partner dose 2 µM) | 98.5 | 28.1 | 327 | 181 | 81.1 | 102 | 71.6 | 88.5 | 223 | 62.4 | 114 | 150 | 170 | 122 | 64.9 | 55.3
C=C(c1ccc(C(=O)O)cc1)c1cc2c(cc1C)C(C)(C)CCC2(C)C [Bexarotene] + COc1ccc(-c2ccc3c(N4CCOCC4)nc(N4C[C@@H](C)O[C@@H](C)C4)nc3n2)cc1CO [KU0063794] (first compound 2 µM, partner dose 0.02 µM) | 56 | 62.5 | 67.6 | 78.5 | 222 | 126 | 147 | 128 | 107 | 25.1 | 149 | 270 | 105 | 89.6 | 139 | 61.8
CS(=O)(=O)CCNCc1ccc(-c2ccc3ncnc(Nc4ccc(OCc5cccc(F)c5)c(Cl)c4)c3c2)o1 [lapatinib] + O=S(=O)(c1ccccc1)N(CC(F)(F)F)c1ccc(C(O)(C(F)(F)F)C(F)(F)F)cc1 [T0901317] (first compound 0.8 µM, partner dose 1.4 µM) | 207 | 45.4 | 23.3 | 33.8 | 64 | 114 | 35.9 | 98.9 | 100 | 145 | 86.7 | 57.8 | 99.8 | 116 | 138 | 57.2
CC(C)C[C@H](NC(=O)[C@H](Cc1ccccc1)NC(=O)c1cnccn1)B(O)O [Bortezomib] + O=C(Nc1ccccc1)c1cc([N+](=O)[O-])ccc1Cl [GW9662] (first compound 0.001 µM, partner dose 2 µM) | 505 | 143 | 230 | 144 | 523 | 151 | 151 | 124 | 73.8 | 82.3 | 156 | 1120 | 236 | 52 | 146 | 111

Part of the list above in another layout.
SMILES,cleaved PARP positive nuclei fraction (501Mel) [%],cleaved PARP positive nuclei fraction (A101D) [%],cleaved PARP positive nuclei fraction (A2058) [%],cleaved PARP positive nuclei fraction (C32) [%],cleaved PARP positive nuclei fraction (CBRC008) [%],cleaved PARP positive nuclei fraction (CBRC014) [%],cleaved PARP positive nuclei fraction (CBRC016) [%],cleaved PARP positive nuclei fraction (CBRC017) [%],cleaved PARP positive nuclei fraction (COLO792) [%],cleaved PARP positive nuclei fraction (COLO800) [%],cleaved PARP positive nuclei fraction (COLO829) [%],cleaved PARP positive nuclei fraction (G361) [%],cleaved PARP positive nuclei fraction (IPC-298) [%],cleaved PARP positive nuclei fraction (IST-MEL1) [%],cleaved PARP positive nuclei fraction (LB2518-MEL) [%],cleaved PARP positive nuclei fraction (LOXIMVI) [%]
"CNC(=O)c1cc(Oc2ccc(NC(=O)Nc3ccc(Cl)c(C(F)(F)F)c3)cc2)ccn1 [sorafenib] + COC(=O)c1sccc1S(=O)(=O)Nc1ccc(Nc2ccccc2)cc1OC [GSK0660] (first compound 0.4 µM, partner dose 1 µM)",166,40.2,74.8,40.5,112,120,92.8,123,74.7,259,191,134,195,23.2,128,73.9
"CO[C@H]1C[C@@H]2CC[C@@H](C)[C@@](O)(O2)C(=O)C(=O)N2CCCC[C@H]2C(=O)O[C@H]([C@H](C)C[C@@H]2CC[C@@H](OCCO)[C@H](OC)C2)CC(=O)[C@H](C)/C=C(\C)[C@@H](O)[C@@H](OC)C(=O)[C@H](C)C[C@H](C)/C=C/C=C/C=C/1C [everolimus] + O=C(Nc1ccccc1)c1cc([N+](=O)[O-])ccc1Cl [GW9662] (first compound 0.02 µM, partner dose 2 µM)",98.5,28.1,327,181,81.1,102,71.6,88.5,223,62.4,114,150,170,122,64.9,55.3
"C=C(c1ccc(C(=O)O)cc1)c1cc2c(cc1C)C(C)(C)CCC2(C)C [Bexarotene] + COc1ccc(-c2ccc3c(N4CCOCC4)nc(N4C[C@@H](C)O[C@@H](C)C4)nc3n2)cc1CO [KU0063794] (first compound 2 µM, partner dose 0.02 µM)",56,62.5,67.6,78.5,222,126,147,128,107,25.1,149,270,105,89.6,139,61.8
